Measurements as given in publication PMC7835061.
Results are given in words; binding and its absence hold for the method and conditions named. Binding seen in cells or lysates may run through a third protein. Some results given as binding are weak or reduced against the parent protein; the word gives no strength.

Molecular target: T1, Sparc/osteonectin, cwcv and kazal-like domains proteoglycan 1 (SPOCK1) (human (endogenous in MCF7 and SKBR3)) (UniProt Q08629)
T1 sequence: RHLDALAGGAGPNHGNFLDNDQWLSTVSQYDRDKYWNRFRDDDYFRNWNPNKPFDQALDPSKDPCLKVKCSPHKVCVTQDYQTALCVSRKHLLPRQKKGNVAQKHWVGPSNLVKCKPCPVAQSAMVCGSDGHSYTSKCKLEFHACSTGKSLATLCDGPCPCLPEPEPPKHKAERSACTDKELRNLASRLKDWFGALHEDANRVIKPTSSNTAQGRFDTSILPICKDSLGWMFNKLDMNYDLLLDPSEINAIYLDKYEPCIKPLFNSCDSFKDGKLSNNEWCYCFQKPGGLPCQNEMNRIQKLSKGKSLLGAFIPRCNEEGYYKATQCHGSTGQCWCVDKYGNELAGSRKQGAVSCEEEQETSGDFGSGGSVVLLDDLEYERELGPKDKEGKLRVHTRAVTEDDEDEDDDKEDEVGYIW
Assay: co-IP; endogenous proteins in MCF7 and SKBR3 cell lysates; primary antibody overnight at 4° C, Protein A/G PLUS-Agarose beads, control IgG preclearing, washed 3 times with lysis buffer, western blot

binding: binds
B1: SIX homeobox 1 (SIX1) (protein, UniProt Q15475 1-284)
chain: MSMLPSFGFTQEQVACVCEVLQQGGNLERLGRFLWSLPACDHLHKNESVLKAKAVVAFHRGNFRELYKILESHQFSPHNHPKLQQLWLKAHYVEAEKLRGRPLGAVGKYRVRRKFPLPRTIWDGEETSYCFKEKSRGVLREWYAHNPYPSPREKRELAEATGLTTTQVSNWFKNRRQRDRAAEAKERENTENNNSSSNKQNQLSPLEGGKPLMSSSEEEFSPPQSPDQNSVLLLQGNMGHARSSNYSLPGLTASQPSHGLQTHQHQLQDSLLGPLTSSLVDLGS
